This assay has as its target 3xFLAG-MYCN (UniProt P04198). Description: co-IP; 0,3 mg protein extract of HEK 293T cells co-transfected with 3xFLAG-LSD1 and 3xFLAG-MYCN, cells treated with TCP, SP2509 or vehicle; precipitated with MYCN antibody; blots with MYCN, LSD1 and MAX antibodies.

By UniProt entry, the sequences of proteins in these tests, tags left out.
UniProt P04198: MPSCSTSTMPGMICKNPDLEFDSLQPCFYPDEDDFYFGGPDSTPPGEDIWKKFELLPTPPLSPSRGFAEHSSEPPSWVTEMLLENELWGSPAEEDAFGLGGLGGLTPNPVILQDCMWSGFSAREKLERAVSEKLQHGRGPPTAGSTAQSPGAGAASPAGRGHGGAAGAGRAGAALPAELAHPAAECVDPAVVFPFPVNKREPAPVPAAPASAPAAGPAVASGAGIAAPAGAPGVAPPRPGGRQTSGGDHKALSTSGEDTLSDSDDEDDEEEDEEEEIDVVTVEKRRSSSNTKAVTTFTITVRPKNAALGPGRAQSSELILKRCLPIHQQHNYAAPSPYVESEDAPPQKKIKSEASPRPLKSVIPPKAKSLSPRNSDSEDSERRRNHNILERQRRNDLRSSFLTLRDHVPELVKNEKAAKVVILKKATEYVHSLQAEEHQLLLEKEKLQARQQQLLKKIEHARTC
UniProt P61244: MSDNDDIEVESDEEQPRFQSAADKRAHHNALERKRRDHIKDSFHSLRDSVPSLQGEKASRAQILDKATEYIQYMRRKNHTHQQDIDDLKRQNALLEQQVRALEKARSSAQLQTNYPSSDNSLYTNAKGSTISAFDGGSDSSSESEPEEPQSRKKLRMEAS

These are yes or no findings as the source states them, for the method shown. Binding seen in cells or lysates may run through a third protein. Some entries that bind do so weakly or less than the wild type.

In the case of MAX (from UniProt P61244 1-160), the binding result was “binds”.

For the origin of these results see PMC5354800.
